PubChem BioAssay AID1159584 | Peter MacCallum Cancer Centre | 2016
The whole screen tested about 18,000 reagents; shown is a random part of them. Further read-outs or replicates are left out here. The record does not give: the amount of reagent, the time to read-out.

Screen: 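Genes that CDH1-null MCF10A cells selectively depend on to survive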 (primary screen)
Cells: human MCF10A breast epithelial cells, parental and CDH1-null
Knock-down reagent: siRNA against human genes
Measurement: 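Cell viability by CellTiter-Glo ATP luminescence, each line scaled to the mean of mock wells across plates, then CDH1-null over parental ratio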
Direction: CDH1-null / parental viability ratio: higher = CDH1-null cells survive relatively better than parental; CDH1-null viability vs mock: higher = more viable CDH1-null cells
Units: CDH1-null viability vs mock in fraction of mock

CYP4F3 — CDH1-null / parental viability ratio = 0.97; CDH1-null viability vs mock = 0.92
SIX4 — CDH1-null / parental viability ratio = 0.82; CDH1-null viability vs mock = 0.54
CAT — CDH1-null / parental viability ratio = 0.96; CDH1-null viability vs mock = 0.82
NLRP3 — CDH1-null / parental viability ratio = 1.06; CDH1-null viability vs mock = 0.83
PPT1 — CDH1-null / parental viability ratio = 1.03; CDH1-null viability vs mock = 0.89
IMMP1L — CDH1-null / parental viability ratio = 1; CDH1-null viability vs mock = 0.92
NYNRIN — CDH1-null / parental viability ratio = 1.02; CDH1-null viability vs mock = 0.5
BOD1 — CDH1-null / parental viability ratio = 0.8; CDH1-null viability vs mock = 0.55
SMG6 — CDH1-null / parental viability ratio = 1; CDH1-null viability vs mock = 0.76
ATP6V1C2 — CDH1-null / parental viability ratio = 1.02; CDH1-null viability vs mock = 0.92
SIL1 — CDH1-null / parental viability ratio = 1.56; CDH1-null viability vs mock = 0.53
STPG4 — CDH1-null / parental viability ratio = 0.89; CDH1-null viability vs mock = 0.66
RYR2 — CDH1-null / parental viability ratio = 1.15; CDH1-null viability vs mock = 1
GPANK1 — CDH1-null / parental viability ratio = 1.34; CDH1-null viability vs mock = 1.18
